US4933268A, “Silver halide photographic material having at least one dyed hydrophilic colloid layer” (Fuji Photo Film Co., Ltd., priority 1987, dated 1990)

Legend:
[1] = Fixing ratio of dye in gelatin layer after dipping in distilled water (Example 1); format: physicochemical; settings: no mordant; dipped in distilled water of 50° C. for 30 seconds; from optical densities at absorption maximum
[2] = Decoloring ratio of dye in gelatin layer after dipping in developer (Example 1); format: physicochemical; settings: no mordant; dipped in developer one minute at 30° C., washed 10 seconds
[3] = X-ray photographic material with dyed subbing layers: relative sensitivity and MTF (Example 4); settings: Mordant II-16; for Relative Sensitivity: coated amount (a) 15, (b) 17.5, (c) 14.2, I-9 17.8, I-8 18.4, I-15 18.3 mg/m^2, no dye = 100; for MTF in the Combination with G-4 Screen: same coated amounts as E7, 2.0 cycles/mm, optical density 1.0
[4] = X-ray photographic material, quick processing: relative sensitivity (Example 5); settings: quick process, dry to dry 48 sec.; coated amount B 17.5, C 14.2, I-9 17.8, I-8 18.4, I-15 18.4 mg/m^2
[5] = Fixing ratio of dye in mordant-containing gelatin layer after dipping in pH 7.0 buffer (Example 3); format: physicochemical; settings: with mordant; dipped in buffer pH 7.0 for 10 minutes at 25° C.
[6] = Decoloring ratio of dye in mordant-containing gelatin layer after dipping in developer (Example 3); format: physicochemical; settings: with mordant; developer pH 10.20, 25 seconds at 35° C., washed 20 seconds
[7] = X-ray photographic material with formula (III) mordants: relative sensitivity and MTF (Example 6); settings: for Relative Sensitivity: Sample 1 without dye = 100
[8] = Mordant III-1, (b) 17.5, I-8 18.4 mg/m^2
[9] = Mordant III-15, (a) 15, I-8 18.4 mg/m^2
[10] = Mordant III-24, (c) 14.2, I-8 18.4 mg/m^2

Row | SMILES | Fixing Ratio [1] | Decoloring Ratio [2] | Fixing Ratio (%) [5] [%] | Decoloring Ratio (%) [6] [%] | other results
1 | O=C(CCCCCCCO)NC1=NN(c2cccc(S(=O)(=O)O)c2)C(=O)C1=Cc1c(NC(=O)CCCCCCCO)nn(-c2cccc(S(=O)(=O)O)c2)c1O [Dye 12] | 88 | 89 |  |  | 
2 | CC(C)CC(=O)NC1=NN(c2ccc(S(=O)(=O)O)cc2)C(=O)C1=CC=Cc1c(NC(=O)CC(C)C)nn(-c2ccc(S(=O)(=O)O)cc2)c1O [Dye 15] | 91 | 92 |  |  | Relative Sensitivity [3]: 91; MTF in the Combination with G-4 Screen [3]: 0.55; Relative Sensitivity [4]: 90
3 | CCCNC(=O)C1=NN(c2ccc(Oc3ccccc3)c(S(=O)(=O)O)c2)C(=O)C1=CC=CC=Cc1c(C(=O)NCCC)nn(-c2ccc(Oc3ccccc3)c(S(=O)(=O)O)c2)c1O [Comparison dye B, reference compound] | 50 | 88 |  |  | 
4 | CCCCNC(=O)C1=NN(Cc2ccccc2S(=O)(=O)O)C(=O)C1=CC=Cc1c(C(=O)NCCCC)nn(Cc2ccccc2S(=O)(=O)O)c1O [Dye 8] | 90 | 93 | 97 | 95 | Relative Sensitivity [3]: 91; MTF in the Combination with G-4 Screen [3]: 0.55; Relative Sensitivity [4]: 90; MTF in the Combination with G-4 Screen [7, 8]: 0.54; Relative Sensitivity [7, 8]: 89; MTF in the Combination with G-4 Screen [7, 9]: 0.54; Relative Sensitivity [7, 9]: 88; MTF in the Combination with G-4 Screen [7, 10]: 0.54; Relative Sensitivity [7, 10]: 91
5 | CC(C)CCNC(=O)C1=NN(CCCS(=O)(=O)O)C(=O)C1=CC=Cc1c(C(=O)NCCC(C)C)nn(CCCS(=O)(=O)O)c1O [Dye 9] |  |  |  |  | Relative Sensitivity [3]: 91; MTF in the Combination with G-4 Screen [3]: 0.55; Relative Sensitivity [4]: 91
6 | O=C1C(=CC=Cc2c(-c3ccccc3)nn(-c3ccc(S(=O)(=O)O)cc3)c2O)C(c2ccccc2)=NN1c1ccc(S(=O)(=O)O)cc1 [Comparison dye M, reference compound] |  |  | 98 | 20 | 
7 | CCCCC(=O)NC1=NN(c2ccc(S(=O)(=O)O)cc2)C(=O)C1=Cc1c(NC(=O)CCCC)nn(-c2ccc(S(=O)(=O)O)cc2)c1O [Dye 1] |  |  | 92 | 90 | 
8 | CCCNC(=O)C1=NN(c2ccc(S(=O)(=O)O)cc2)C(=O)C1=CC=CC=Cc1c(C(=O)NCCC)nn(-c2ccc(S(=O)(=O)O)cc2)c1O [Comparison Dye H, reference compound] |  |  | 98 | 80 | 
9 | CNC(=O)C1=NN(c2ccc(S(=O)(=O)O)cc2)C(=O)C1=CC=CC=Cc1c(C(=O)NC)nn(-c2ccc(S(=O)(=O)O)cc2)c1O [Comparison Dye G, reference compound] |  |  | 83 | 97 | 
10 | CCCCCC(=O)NC1=NN(c2ccc(S(=O)(=O)O)cc2)C(=O)C1=CC=CC=Cc1c(NC(=O)CCCCC)nn(-c2ccc(S(=O)(=O)O)cc2)c1O [Dye 29] | 91 | 90 | 97 | 96 | 
11 | O=C(Nc1ccccc1)C1=NN(c2ccc(S(=O)(=O)O)cc2)C(=O)C1=CC=Cc1c(C(=O)Nc2ccccc2)nn(-c2ccc(S(=O)(=O)O)cc2)c1O [Comparison dye C, reference compound] | 92 | 72 |  |  | 
12 | CC(=O)NC1=NN(c2ccc(S(=O)(=O)O)cc2)C(=O)C1=CC=Cc1c(NC(C)=O)nn(-c2ccc(S(=O)(=O)O)cc2)c1O [Comparison dye E, reference compound] | 20 | 94 |  |  | 
13 | O=C(NCCS(=O)(=O)O)C1=NN(c2ccc(S(=O)(=O)O)cc2)C(=O)C1=Cc1c(C(=O)NCCS(=O)(=O)O)nn(-c2ccc(S(=O)(=O)O)cc2)c1O [Comparison dye D, reference compound] | 15 | 98 |  |  | 
14 | CCC(C)NC(=O)C1=NN(c2ccc(S(=O)(=O)O)cc2)C(=O)C1=Cc1c(C(=O)NC(C)CC)nn(-c2ccc(S(=O)(=O)O)cc2)c1O (stereo not drawn) [Dye 11] |  |  | 92 | 92 | 
15 | CC1=NN(c2ccc(S(=O)(=O)O)cc2)C(=O)C1=CC=Cc1c(C)nn(-c2ccc(S(=O)(=O)O)cc2)c1O [Comparison dye L, reference compound] |  |  | 85 | 55 | 
16 | CNC(=O)C1=NN(c2cccc(S(=O)(=O)O)c2)C(=O)C1=CC=Cc1c(C(=O)NC)nn(-c2cccc(S(=O)(=O)O)c2)c1O [Comparison dye A, reference compound] | 18 | 93 |  |  | 
17 | CCCCCCNC(=O)C1=NN(c2ccc(S(=O)(=O)O)cc2)C(=O)C1=CC=CC=Cc1c(C(=O)NCCCCCC)nn(-c2ccc(S(=O)(=O)O)cc2)c1O [Dye 31] | 97 | 87 |  |  | 
18 | CCOC(=O)C1=NN(CCS(=O)(=O)O)C(=O)C1=CC=Cc1c(C(=O)OCC)nn(CCS(=O)(=O)O)c1O [Comparison dye J, reference compound] |  |  | 30 | 9 | 
19 | CCCCNC(=O)C1=NN(c2ccc(S(=O)(=O)O)cc2)C(=O)C1=CC=Cc1c(C(=O)NCCCC)nn(-c2ccc(S(=O)(=O)O)cc2)c1O [Dye 10] | 92 | 90 |  |  | 
20 | CC(C)CNC(=O)C1=NN(Cc2ccccc2S(=O)(=O)O)C(=O)C1=CC=Cc1c(C(=O)NCC(C)C)nn(Cc2ccccc2S(=O)(=O)O)c1O [Dye 25] |  |  | 97 | 95 | 
21 | CCCCCCCC(=O)NC1=NN(c2cc(S(=O)(=O)O)ccc2S(=O)(=O)O)C(=O)C1=CC=Cc1c(NC(=O)CCCCCCC)nn(-c2cc(S(=O)(=O)O)ccc2S(=O)(=O)O)c1O [Comparison dye F, reference compound] | 93 | 75 |  |  | 
22 | CCCCNC(=O)C1=NN(c2ccc(S(=O)(=O)O)cc2)C(=O)C1=CC=CC=Cc1c(C(=O)NCCCC)nn(-c2ccc(S(=O)(=O)O)cc2)c1O [Dye 43] |  |  | 95 | 97 | 
23 | O=C(O)C1=NN(S(=O)(=O)O)C(=O)C1=CC=Cc1c(C(=O)O)nn(S(=O)(=O)O)c1O [Comparison dye K, reference compound] |  |  | 75 | 65 | 
